Assay results published in PubChem BioAssay (EPA / NIEHS).
“And” between values parts separate entries of the source, which are not always exact repeats. Identical values can stand only once. The shares of active, inactive and inconclusive entries below differ from those in the screen. For some assays here: Potencies of inconclusive entries are doubtful fits and often do not repeat. Some structures have more than one record in an assay (separate samples or runs), and their calls can disagree. The source made the active and inactive calls. Rule for the calls: active = hit-call score of the fitted dose curve at least 0.9, where 1 is the maximum; inconclusive = response in the unintended direction; inactive = score below 0.9.

Sequences of proteins named here, by UniProt entry; tags and fusion partners are left off. A change or cut given only in a name is not applied to a line headed by its entry.
UniProt P62508: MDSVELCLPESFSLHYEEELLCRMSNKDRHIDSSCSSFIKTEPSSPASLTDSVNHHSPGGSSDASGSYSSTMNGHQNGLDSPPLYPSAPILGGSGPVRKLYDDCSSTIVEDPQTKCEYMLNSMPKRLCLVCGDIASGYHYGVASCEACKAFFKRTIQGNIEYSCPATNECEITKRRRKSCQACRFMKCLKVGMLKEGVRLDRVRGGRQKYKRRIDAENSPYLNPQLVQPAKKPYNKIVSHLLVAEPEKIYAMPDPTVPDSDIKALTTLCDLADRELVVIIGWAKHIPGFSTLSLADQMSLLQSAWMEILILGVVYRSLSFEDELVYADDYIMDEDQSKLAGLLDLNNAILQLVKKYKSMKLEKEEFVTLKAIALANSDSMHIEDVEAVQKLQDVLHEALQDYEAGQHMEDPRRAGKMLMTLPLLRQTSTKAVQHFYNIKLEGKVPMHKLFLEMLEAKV
UniProt P04150: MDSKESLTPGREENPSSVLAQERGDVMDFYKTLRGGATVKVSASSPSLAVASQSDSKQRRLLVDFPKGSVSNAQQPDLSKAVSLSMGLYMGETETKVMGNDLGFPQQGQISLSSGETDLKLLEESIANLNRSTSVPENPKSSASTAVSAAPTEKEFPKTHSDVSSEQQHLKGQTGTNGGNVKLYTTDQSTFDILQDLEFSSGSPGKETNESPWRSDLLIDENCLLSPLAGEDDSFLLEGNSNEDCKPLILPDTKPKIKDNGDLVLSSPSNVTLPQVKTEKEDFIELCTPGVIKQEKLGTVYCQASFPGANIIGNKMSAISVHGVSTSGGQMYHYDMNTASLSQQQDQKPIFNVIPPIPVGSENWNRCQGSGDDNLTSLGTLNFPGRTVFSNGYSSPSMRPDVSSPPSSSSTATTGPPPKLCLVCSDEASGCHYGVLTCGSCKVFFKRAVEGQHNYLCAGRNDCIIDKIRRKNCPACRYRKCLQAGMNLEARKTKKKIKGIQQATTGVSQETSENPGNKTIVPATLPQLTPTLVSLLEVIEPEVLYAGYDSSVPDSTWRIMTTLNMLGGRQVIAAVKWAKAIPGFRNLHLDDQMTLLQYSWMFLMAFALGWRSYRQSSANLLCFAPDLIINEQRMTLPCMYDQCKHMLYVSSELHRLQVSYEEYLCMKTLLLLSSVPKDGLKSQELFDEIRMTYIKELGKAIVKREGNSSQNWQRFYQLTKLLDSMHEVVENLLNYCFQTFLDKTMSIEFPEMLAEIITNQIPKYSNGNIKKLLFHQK
UniProt P04637, whole entry, looked up: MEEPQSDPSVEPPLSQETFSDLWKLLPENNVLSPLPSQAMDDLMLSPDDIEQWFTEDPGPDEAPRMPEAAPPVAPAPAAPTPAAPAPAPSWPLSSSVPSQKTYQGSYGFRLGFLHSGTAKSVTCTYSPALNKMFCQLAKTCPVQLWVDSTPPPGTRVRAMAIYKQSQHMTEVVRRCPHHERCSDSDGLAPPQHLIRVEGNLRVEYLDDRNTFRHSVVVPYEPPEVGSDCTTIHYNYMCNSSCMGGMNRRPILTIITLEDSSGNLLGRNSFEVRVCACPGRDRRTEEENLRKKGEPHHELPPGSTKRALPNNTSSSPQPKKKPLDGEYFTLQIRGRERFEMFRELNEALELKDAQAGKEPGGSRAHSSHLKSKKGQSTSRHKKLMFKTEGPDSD
UniProt Q96RI1: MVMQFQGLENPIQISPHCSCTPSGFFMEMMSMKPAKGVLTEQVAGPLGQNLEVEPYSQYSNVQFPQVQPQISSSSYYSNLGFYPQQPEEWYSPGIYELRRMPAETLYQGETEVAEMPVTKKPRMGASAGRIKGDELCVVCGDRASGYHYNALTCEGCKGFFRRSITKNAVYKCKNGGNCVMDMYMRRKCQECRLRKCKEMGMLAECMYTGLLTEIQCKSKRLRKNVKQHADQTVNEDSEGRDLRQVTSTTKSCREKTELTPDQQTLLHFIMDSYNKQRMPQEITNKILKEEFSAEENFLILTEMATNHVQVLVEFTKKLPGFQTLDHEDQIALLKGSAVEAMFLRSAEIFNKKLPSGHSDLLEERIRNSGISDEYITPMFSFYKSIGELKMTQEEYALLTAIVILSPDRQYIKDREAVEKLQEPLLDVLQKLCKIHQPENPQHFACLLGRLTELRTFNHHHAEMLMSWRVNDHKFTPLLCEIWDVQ
UniProt P55055, whole entry, looked up: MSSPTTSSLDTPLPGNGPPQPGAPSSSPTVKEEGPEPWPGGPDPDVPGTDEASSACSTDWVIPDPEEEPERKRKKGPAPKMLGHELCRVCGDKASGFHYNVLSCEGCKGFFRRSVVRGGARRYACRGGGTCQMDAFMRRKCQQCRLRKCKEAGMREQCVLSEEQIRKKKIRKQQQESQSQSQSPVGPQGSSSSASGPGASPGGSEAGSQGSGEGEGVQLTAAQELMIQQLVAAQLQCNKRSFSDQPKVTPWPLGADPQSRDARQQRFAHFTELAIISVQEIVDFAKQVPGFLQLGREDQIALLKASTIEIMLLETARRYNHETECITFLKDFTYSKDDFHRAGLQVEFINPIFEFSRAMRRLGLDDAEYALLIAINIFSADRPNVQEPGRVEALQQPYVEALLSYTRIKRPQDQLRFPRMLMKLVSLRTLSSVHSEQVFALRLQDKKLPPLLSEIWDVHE
UniProt Q03181: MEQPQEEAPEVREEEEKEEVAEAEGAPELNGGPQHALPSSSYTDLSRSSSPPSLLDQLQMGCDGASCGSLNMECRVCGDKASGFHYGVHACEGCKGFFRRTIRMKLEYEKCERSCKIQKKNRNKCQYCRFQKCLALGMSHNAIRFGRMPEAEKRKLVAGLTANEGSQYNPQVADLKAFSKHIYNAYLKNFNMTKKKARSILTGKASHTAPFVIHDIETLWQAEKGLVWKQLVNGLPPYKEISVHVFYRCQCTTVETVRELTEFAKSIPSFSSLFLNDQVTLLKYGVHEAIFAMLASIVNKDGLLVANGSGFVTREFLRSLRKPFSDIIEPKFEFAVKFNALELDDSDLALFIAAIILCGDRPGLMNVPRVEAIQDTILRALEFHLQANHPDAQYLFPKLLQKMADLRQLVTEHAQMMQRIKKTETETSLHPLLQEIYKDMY
UniProt P37231: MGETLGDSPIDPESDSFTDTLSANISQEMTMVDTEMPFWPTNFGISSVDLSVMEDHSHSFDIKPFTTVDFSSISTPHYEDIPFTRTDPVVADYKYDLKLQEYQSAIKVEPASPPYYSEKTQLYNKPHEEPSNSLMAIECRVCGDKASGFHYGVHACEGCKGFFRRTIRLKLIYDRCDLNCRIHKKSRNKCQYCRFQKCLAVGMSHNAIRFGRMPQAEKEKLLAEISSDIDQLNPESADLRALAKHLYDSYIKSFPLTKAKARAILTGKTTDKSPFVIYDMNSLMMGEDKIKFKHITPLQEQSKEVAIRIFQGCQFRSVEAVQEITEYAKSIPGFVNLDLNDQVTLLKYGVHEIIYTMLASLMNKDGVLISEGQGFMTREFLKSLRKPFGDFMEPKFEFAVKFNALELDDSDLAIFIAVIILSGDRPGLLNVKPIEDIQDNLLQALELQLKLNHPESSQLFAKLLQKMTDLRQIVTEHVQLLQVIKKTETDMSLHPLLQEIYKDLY
UniProt P19793: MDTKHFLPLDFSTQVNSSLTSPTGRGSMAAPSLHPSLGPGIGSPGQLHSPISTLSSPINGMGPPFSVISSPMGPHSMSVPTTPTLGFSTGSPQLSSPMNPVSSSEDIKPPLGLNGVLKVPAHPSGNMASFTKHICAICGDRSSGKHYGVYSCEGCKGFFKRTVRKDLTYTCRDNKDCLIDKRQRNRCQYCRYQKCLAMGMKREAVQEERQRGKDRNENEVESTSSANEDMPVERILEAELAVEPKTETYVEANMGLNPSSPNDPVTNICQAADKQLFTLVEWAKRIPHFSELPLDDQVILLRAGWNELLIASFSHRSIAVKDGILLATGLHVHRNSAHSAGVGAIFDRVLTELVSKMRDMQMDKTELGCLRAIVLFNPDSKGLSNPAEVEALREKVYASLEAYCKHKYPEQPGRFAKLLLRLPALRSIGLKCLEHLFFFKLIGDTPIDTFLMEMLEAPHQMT
UniProt P04406: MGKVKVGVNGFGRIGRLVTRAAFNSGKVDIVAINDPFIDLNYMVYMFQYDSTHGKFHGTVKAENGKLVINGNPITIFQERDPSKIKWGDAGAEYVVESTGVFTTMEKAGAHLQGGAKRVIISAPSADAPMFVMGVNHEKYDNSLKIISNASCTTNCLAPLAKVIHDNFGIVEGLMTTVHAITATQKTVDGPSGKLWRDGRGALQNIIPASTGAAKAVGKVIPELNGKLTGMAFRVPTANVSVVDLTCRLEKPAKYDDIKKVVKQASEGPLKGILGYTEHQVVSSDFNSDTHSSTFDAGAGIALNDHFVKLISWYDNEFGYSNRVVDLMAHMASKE
UniProt P11473: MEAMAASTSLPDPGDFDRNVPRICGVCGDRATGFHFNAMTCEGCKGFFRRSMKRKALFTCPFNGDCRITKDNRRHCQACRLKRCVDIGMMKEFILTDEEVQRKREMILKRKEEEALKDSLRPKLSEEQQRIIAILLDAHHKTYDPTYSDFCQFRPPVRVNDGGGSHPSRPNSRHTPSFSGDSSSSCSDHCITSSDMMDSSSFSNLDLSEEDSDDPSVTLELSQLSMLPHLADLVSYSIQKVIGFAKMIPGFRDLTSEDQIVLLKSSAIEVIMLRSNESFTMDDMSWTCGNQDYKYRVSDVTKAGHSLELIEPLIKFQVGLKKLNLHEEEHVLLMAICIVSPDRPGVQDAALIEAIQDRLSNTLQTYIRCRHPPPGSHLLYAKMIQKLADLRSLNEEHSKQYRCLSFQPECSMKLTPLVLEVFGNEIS

Assays:
[1] = biological target: Estrogen-related receptor gamma (Homo sapiens) (UniProt P62508); assay: ATG_ERRg_TRANS: Attagene TRANS-FACTORIAL HepG2 Assay for human Estrogen-Related Receptor gamma (ERRg) (AID 2282977); conditions: HepG2 Attagene TRANS reporter, ERRg transactivation;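 note: hits increase reporter signal over DMSO so potencies reflect activators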
Method in brief: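 HepG2 cells transiently transfected with multiplexed GAL4-UAS reporter units driven by chimeric NR-Gal4 proteins; 24 h exposure. Reporter mRNA quantified by RT-PCR, fluorescent labelling, HpaI digestion and capillary electrophoresis; gain of signal vs DMSO.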

[2] = biological target: Glucocorticoid receptor (Homo sapiens) (UniProt P04150); assay: ATG_GR_TRANS: Attagene TRANS-FACTORIAL HepG2 Assay for human Glucocorticoid Receptor (GR) (AID 2282978); conditions: HepG2 Attagene TRANS GR reporter, mRNA transcription;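 note: activators score as hits since higher reporter transcript over DMSO is fitted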
Method in brief: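 Transient MRTU transfection of HepG2 (GAL4-UAS reporters, exogenous NR-GAL4 chimeras), 24 h dosing. Readout: reporter transcript via RT-PCR + capillary electrophoresis fluorescence. Positive direction vs DMSO baseline.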

[3] = biological target: Cellular tumor antigen p53 (Homo sapiens) (UniProt P04637); assay: TOX21_p53_BLA_p2_ratio: Tox21 HCT-116 p53 Agonism Beta-lactamase Assay, Ratio, Phase 2 (AID 2283592)
Method in brief: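 HCT116 p53-bla; 4000 cells/well; 5 h pre-incubation; cpd in DMSO, 217-fold dilution; 16 h 37C/5% CO2; CCF4-AM 2 h RT; Ex 405, Em 460/530 ratio; DMSO = baseline; positive fitting direction.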

[4] = biological target: Cellular tumor antigen p53 (Homo sapiens) (UniProt P04637); assay: TOX21_p53_BLA_p3_ratio: Tox21 HCT-116 p53 Agonism Beta-lactamase Assay, Ratio, Phase 3 (AID 2283596)
Method in brief: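 HCT116 p53-bla cells (4000/well) given compound in DMSO (217-fold dilution) after 5 h, incubated 16 h at 37C. CCF4-AM substrate 2 h at room temperature; 460/530 nm emission ratio, gain fitted against DMSO.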

[5] = biological target: Cellular tumor antigen p53 (Homo sapiens) (UniProt P04637); assay: TOX21_p53_BLA_p5_ratio: Tox21 HCT-116 p53 Agonism Beta-lactamase Assay, Ratio, Phase 5 (AID 2283599)
Method in brief: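 HCT-116 cells carrying a p53-inducible beta-lactamase reporter were seeded at 4000 cells/well and dosed after 5 h with compound in DMSO (217-fold dilution). After 16 h at 37C, CCF4-AM substrate was added for 2 h, and the 460/530 nm emission ratio was scored as gain-of-signal versus DMSO.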

[6] = TOX21_p53_BLA_p5_viability: Viability Assessment in the Tox21 HCT-116 p53 Agonism Beta-lactamase Assay, Phase 5 (AID 2283600)
Method in brief: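 4000 cells/well; 5 h pre-incubation; DMSO compounds pin-transferred, 217-fold dilution; 16 h, 37C/5% CO2; CCF4-AM 2 h RT; CellTiter-Glo 30 min RT; luminescence.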

[7] = biological target: Cellular tumor antigen p53 (Homo sapiens) (UniProt P04637); assay: TOX21_p53_BLA_p4_ratio: Tox21 HCT-116 p53 Agonism Beta-lactamase Assay, Ratio, Phase 4 (AID 2283601)
Method in brief: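 HCT116 cells carrying an inducible beta-lactamase reporter were plated at 4000 cells/well, rested 5 h, then exposed to compounds in DMSO (217-fold dilution) for 16 h at 37C. CCF4-AM substrate was loaded 2 h at room temperature; 460/530 nm emission ratio scored gain-of-signal versus DMSO.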

[8] = biological target: Bile acid receptor (Homo sapiens) (UniProt Q96RI1); assay: ATG_FXR_TRANS: Attagene TRANS-FACTORIAL HepG2 Assay for Farnesoid X Receptor (FXR) (AID 2282979); conditions: HepG2 Attagene TRANS FXR-GAL4 reporter transcription;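 note: hits raise reporter mRNA above DMSO so AC50 marks FXR activation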
Method in brief: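 Transient transfection of HepG2 with multiplexed GAL4-UAS reporter units; exogenous FXR-GAL4 chimera. Dose 24 h → TriZol RNA → oligo(dT) RT → PCR, 6-FAM primer extension, HpaI cut → CE. Gain vs DMSO.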

[9] = biological target: Oxysterols receptor LXR-beta (Homo sapiens) (UniProt P55055); assay: ATG_LXRb_TRANS: Attagene TRANS-FACTORIAL HepG2 Assay for human Liver X Receptor beta (LXRb) (AID 2282981); conditions: HepG2 Attagene TRANS GAL4-LXRb reporter, mRNA
Method in brief: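 In this TRANS format, exogenous chimeric NR-Gal4 protein activity, not endogenous factors, drives reporter expression in transfected human HepG2 cells. Exposure lasted 24 h; reporter mRNA was read by fluorescent capillary electrophoresis.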

[10] = ATG_M_06_TRANS: Attagene TRANS-FACTORIAL HepG2 Assay for M06 Transcription Factor (Internal Marker) (AID 2282983); conditions: HepG2 Attagene TRANS M06 internal marker reporter;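 for AC50: potency for rise in reporter mRNA above DMSO baseline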
Method in brief: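 Transfect HepG2 with MRTUs → dose compounds 24 h → isolate RNA, oligo(dT) RT → PCR with reporter primers → 6-FAM primer extension → HpaI digest → CE fragment analysis. Positive direction vs DMSO.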

[11] = biological target: human Peroxisome Proliferator-activated Receptor delta (PPARd), PPARD (gene 5467) (UniProt Q03181); assay: ATG_PPARd_TRANS: Attagene TRANS-FACTORIAL HepG2 Assay for human Peroxisome Proliferator-activated Receptor delta (PPARd) (AID 2283002)
Method in brief: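 Measured quantity: GAL4-UAS reporter transcript induction in HepG2 after 24 h chemical dosing, with NR-Gal4 chimeras supplied by transient transfection. Detection by RT-PCR and capillary electrophoresis; upward fit against DMSO.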

[12] = biological target: Peroxisome proliferator-activated receptor gamma (Homo sapiens) (UniProt P37231); assay: ATG_PPARg_TRANS: Attagene TRANS-FACTORIAL HepG2 Assay for human Peroxisome Proliferator-activated Receptor-gamma (PPARg) (AID 2283007)
Method in brief: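 Read-out: reporter mRNA induction, detected by fluorescence after RT-PCR and capillary electrophoresis. Transiently transfected human HepG2 liver cells carrying a chimeric NR-Gal4 construct were dosed for 24 h; activity was fitted upward relative to DMSO.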

[13] = biological target: Retinoic acid receptor RXR-alpha (Homo sapiens) (UniProt P19793); assay: OT_NURR1_NURR1RXRa_0480: Odyssey Thera (OT) 8-hour HEK293T Protein Complementation Assay for Nurr1/retinoid X receptor (RXR) (AID 2283385)
Method in brief: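 HEK293T cells expressing Nurr1 and RXRα fused to reporter fragments (protein-fragment complementation); fluorescence measured 8 h after dosing. Gain of signal fitted relative to DMSO.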

[14] = biological target: Retinoic acid receptor RXR-alpha (Homo sapiens) (UniProt P19793); assay: OT_NURR1_NURR1RXRa_1440: Odyssey Thera (OT) 24-hour HEK293T Protein Complementation Assay for Nurr1/retinoid X receptor (RXR) (AID 2283386)
Method in brief: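 HEK293T protein-fragment complementation of Nurr1 and RXRα fused to reporter fragments; compounds 24 h. Fluorescence gain from reconstituted reporter fitted versus DMSO.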

[15] = read-out: HMG-CoA synthase (HMGCS2), HMGCS2 (gene 3158); assay: CLD_HMGCS2_24hr: CellzDirect (CLD) Gene Expression Assay for HMG-CoA synthase (HMGCS2) at 24 hours (AID 2283691)
Method in brief: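 Primary human hepatocytes from two donor preparations, dosed daily with fresh solutions; vehicle 0.2% DMSO, 24 h harvest. HMGCS2 mRNA quantified by qNPA with S1 nuclease digestion and chemiluminescence; gain fitted versus DMSO, cytotoxicity annotated by morphology.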

[16] = read-out: Glyceraldehyde-3-phosphate dehydrogenase (Homo sapiens) (UniProt P04406); assay: CLD_GAPDH_24hr: CellzDirect (CLD) Gene Expression Assay for Baseline Control (Glyceraldehyde 3-phosphate dehydrogenase) at 24 hours (AID 2283692)
Method in brief: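 Primary human hepatocytes (two donor preparations) dosed daily for two days, 0.2% DMSO vehicle; GAPDH mRNA measured at 24 h by qNPA chemiluminescence as a background control, gain-of-signal fitted against DMSO.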

[17] = read-out: HMG-CoA synthase (HMGCS2), HMGCS2 (gene 3158); assay: CLD_HMGCS2_48hr: CellzDirect (CLD) Gene Expression Assay for HMG-CoA synthase (HMGCS2) at 48 hours (AID 2283711)
Method in brief: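 Primary human hepatocytes from two donors dosed daily for two days, 0.2% DMSO vehicle. HMGCS2 mRNA measured 48 h after dosing by quantitative nuclease protection assay with chemiluminescent read-out; induction fitted relative to DMSO, cytotoxicity flagged by microscopy.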

[18] = CCTE_Harrill_HTTr_CellCount_MCF7: CCTE's Cell Proliferation Assessment for the High-Throughput Transcriptomics (HTTr) Platform, Harrill Lab (AID 2284012);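 note: cells exposed to compound for six hours; intended direction is loss of nuclei count meaning fewer cells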
Method in brief: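 MCF7 cells exposed 6 hours to an eight-point dilution series; Hoechst-stained nuclei counted by high-content imaging. Bidirectional curve fitting against DMSO baseline.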

[19] = biological target: human Vitamin D Receptor (VDR), VDR (gene 7421) (UniProt P11473); assay: ATG_VDR_TRANS: Attagene TRANS-FACTORIAL HepG2 Assay for human Vitamin D Receptor (VDR) (AID 2283022)
Method in brief: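 Steps: transfect HepG2 with GAL4-UAS-driven reporter constructs; dose compounds 24 h; isolate RNA, reverse-transcribe, PCR-amplify with 6-FAM-labelled primer extension and HpaI digestion; quantify fragments by capillary electrophoresis relative to DMSO.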

[20] = ACEA_ER_AUC_viability: ACEA Biosciences xCELLigence Real-Time Cell Analysis on Estrogen Receptor Agonism for Viability (AID 2283782);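 note: continuous compound exposure with impedance area under curve over 80 h; hit means loss of impedance signal meaning reduced cell growth or viability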
Method in brief: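 T-47D human breast cells in phenol red-free RPMI1640 with 10% charcoal-stripped FBS were dosed with an 8-point 1:4 dilution series from 100 uM top final concentration, in duplicate. Impedance-based growth was followed for 80 h; AUC analysed versus DMSO.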

Measured: AC50

O=[N+]([O-])c1cc(C(F)(F)F)c(Cl)c([N+](=O)[O-])c1Cl
inconclusive: [1] 54.5 µM
inactive: [9] | [10]
active: [2] 33.4 µM | [8] 53.3 µM | [11] 41.1 µM | [12] 8.34 µM | [3] 13.3 µM | [4] 22.2 µM | [5] 21 µM | [6] 46.1 µM | [7] 21.9 µM

Clc1cccc(C(Cl)(Cl)Cl)n1
inconclusive: [3] 46.1 µM and 45.8 µM | [4] 45.8 µM | [7] 46.1 µM and 45.8 µM | [15] 0.0486 µM | [16] 20 µM | [17] 1.89 µM
inactive: [13] | [14] | [4] | [18]

CC(C)(c1cc(Cl)c(O)c(Cl)c1)c1cc(Cl)c(O)c(Cl)c1
active: [12] 3.75 µM | [13] 74.7 µM | [14] 78.1 µM | [3] 37 µM and 16.5 µM | [4] 48.2 µM and 17.7 µM | [5] 24.2 µM | [7] 19.7 µM
inconclusive: [1] 33.4 µM | [10] 100 µM and 61.3 µM | [6] 46.1 µM
inactive: [2] | [19] | [5] | [6]

O=C(O)C(F)(F)C(F)(F)C(=O)O
inactive: [11]
inconclusive: [20] 0.326 µM

c1cc2ccc3cccc4ccc(c1)c2c34
inactive: [10]
inconclusive: [1] 104 µM | [2] 104 µM | [8] 104 µM | [10] 100 µM | [14] 52 µM | [18] 50 µM

CC(C)(c1ccc(O)c(-c2ccccc2)c1)c1ccc(O)c(-c2ccccc2)c1
inconclusive: [1] 6.64 µM | [9] 3.71 µM

O=C(O)C(F)(F)C(F)(F)C(F)(F)C(F)(F)C(F)(F)C(F)(F)C(F)(F)C(F)(F)C(F)(F)C(F)(F)F
inactive: [8] | [13] | [7]
inconclusive: [1] 133 µM | [9] 148 µM | [19] 163 µM | [13] 0.815 µM | [14] 26.5 µM

CCCCC(CC)CO[N+](=O)[O-] (centres undefined)
inconclusive: [9] 19.7 µM | [12] 19.7 µM | [19] 1.31 µM | [5] 46.1 µM | [6] 46.1 µM

c1ccc2c(c1)Nc1ccccc1S2
inconclusive: [13] 50 µM | [14] 25 µM | [6] 6.29 µM
inactive: [1] | [13] | [20]
